# Experiment: general procedure: solution-phase peptide synthesis; ethyl-N-dimethylpropylamine carbodiimide / 2-hydroxypyridine-N-oxide
# Conditions: late stage modification step
substance,measurement,value
H-Inp-(D)Bal-(D)Trp-Phe-Apc-NH2,step yield,70%
